Data source: PubChem BioAssay AID504764 (Drosophila RNAi Screening Center, 2011)
In all, the deposit lists about 22,000 reagents; shown is a random part of those that have a named target and a result. In the full data, 403 (1.9%) got an active call. 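Unnormalised raw counts per well; ratio z-scores behind the hit calls and whether each hit raises or lowers signal are not deposited.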 No sequences are given here. Not given: the amount of reagent.

- Screen: 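Genes whose knock-down alters Notch-dependent transcription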 (primary screen)
- System: Drosophila Kc167 cells
- Knock-down reagent: long dsRNA against Drosophila genes
- Duration: about 5 days (4 days dsRNA, then 24 h after transfection)
- Conditions: transfection of constitutively active membrane-tethered Notch lacking the extracellular domain, read 24 h later
- Measurement: 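Firefly luciferase from an E(spl)m3 reporter with active Notch, plus control-promoter and uninduced reporter wells for normalisation; unnormalised counts, duplicate wells a and b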
- Reading the numbers: induced reporter light, run 1, well a and induced reporter light, run 1, well b: higher = more light from the Notch target reporter with active Notch; control promoter light, run 1, well a and control promoter light, run 1, well b: higher = more light from the viral control promoter (cell number, transfection, viability); uninduced reporter light, run 1, well a: higher = more light from the Notch target reporter without active Notch
- Call rule: 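Wells with low control signal or poorly matching duplicates excluded; duplicates averaged; per source plate, z beyond ±2 for induced/control log2 ratio or beyond ±1.8 for induced/uninduced marks a hit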
- Meaning of the calls: active = modifier hit (raised or lowered Notch signal); inactive = not a hit

Bili (Band4.1 inhibitor LRP interactor) [DRSC14405] showed induced reporter light, run 1, well a = 1.82e5; induced reporter light, run 1, well b = 1.64e5; control promoter light, run 1, well a = 3.02e5; control promoter light, run 1, well b = 2.44e5; uninduced reporter light, run 1, well a = 15915; inactive.
Depletion of CG10936 [DRSC05669] resulted in: induced reporter light, run 1, well a = 1.28e5; induced reporter light, run 1, well b = 1.25e5; control promoter light, run 1, well a = 1.82e5; control promoter light, run 1, well b = 1.65e5; uninduced reporter light, run 1, well a = 10620; inactive.
Against CG10936 [DRSC05670], the entry reads induced reporter light, run 1, well a = 82665; induced reporter light, run 1, well b = 94135; control promoter light, run 1, well a = 1.44e5; control promoter light, run 1, well b = 1.11e5; uninduced reporter light, run 1, well a = 8555; inactive.
After knock-down of CG10936 [DRSC06018], the screen gave induced reporter light, run 1, well a = 1.04e5; induced reporter light, run 1, well b = 68490; control promoter light, run 1, well a = 78160; control promoter light, run 1, well b = 86440; uninduced reporter light, run 1, well a = 9095; inactive.
For CG3287 (retired record) [DRSC04991] the deposit lists induced reporter light, run 1, well a = 2.28e5; induced reporter light, run 1, well b = 2.08e5; control promoter light, run 1, well a = 2.68e5; control promoter light, run 1, well b = 2.83e5; uninduced reporter light, run 1, well a = 20620; inactive.
Silencing of Or45a (Odorant receptor 45a) [DRSC07487] came out at: induced reporter light, run 1, well a = 1.78e5; induced reporter light, run 1, well b = 1.97e5; control promoter light, run 1, well a = 2.16e5; control promoter light, run 1, well b = 1.81e5; uninduced reporter light, run 1, well a = 16785; inactive.
After knock-down of CG16734 [DRSC15143], the record shows induced reporter light, run 1, well a = 1.30e5; induced reporter light, run 1, well b = 96800; control promoter light, run 1, well a = 1.26e5; control promoter light, run 1, well b = 1.26e5; uninduced reporter light, run 1, well a = 8345; inactive.
Mpc1 [DRSC14770] showed induced reporter light, run 1, well a = 2.61e5; induced reporter light, run 1, well b = 2.82e5; control promoter light, run 1, well a = 3.14e5; control promoter light, run 1, well b = 3.21e5; uninduced reporter light, run 1, well a = 17360; inactive.
With knock-down of CG3014 [DRSC15458], the record shows induced reporter light, run 1, well a = 73080; induced reporter light, run 1, well b = 71330; control promoter light, run 1, well a = 70775; control promoter light, run 1, well b = 64250; uninduced reporter light, run 1, well a = 5825; inactive.
With knock-down of yip7 (yippee interacting protein 7) [DRSC11410], the record shows induced reporter light, run 1, well a = 2.60e5; induced reporter light, run 1, well b = 2.90e5; control promoter light, run 1, well a = 3.62e5; control promoter light, run 1, well b = 3.05e5; uninduced reporter light, run 1, well a = 15265; inactive.
CalpB (Calpain-B) [DRSC11109] gave induced reporter light, run 1, well a = 1.32e5; induced reporter light, run 1, well b = 1.53e5; control promoter light, run 1, well a = 1.16e5; control promoter light, run 1, well b = 78300; uninduced reporter light, run 1, well a = 15225; inactive.
After knock-down of CG13405 [DRSC08310], the screen gave induced reporter light, run 1, well a = 95285; induced reporter light, run 1, well b = 87655; control promoter light, run 1, well a = 1.37e5; control promoter light, run 1, well b = 1.68e5; uninduced reporter light, run 1, well a = 5860; inactive.
After knock-down of ru (roughoid) [DRSC08258], the record shows induced reporter light, run 1, well a = 1.13e5; induced reporter light, run 1, well b = 1.21e5; control promoter light, run 1, well a = 1.66e5; control promoter light, run 1, well b = 2.05e5; uninduced reporter light, run 1, well a = 8900; inactive.
With knock-down of CG11596 [DRSC18540], the screen gave induced reporter light, run 1, well a = 1.73e5; induced reporter light, run 1, well b = 2.35e5; control promoter light, run 1, well a = 2.38e5; control promoter light, run 1, well b = 2.28e5; uninduced reporter light, run 1, well a = 14842; inactive.
Depletion of indra [DRSC08558] gave: induced reporter light, run 1, well a = 1.20e5; induced reporter light, run 1, well b = 1.16e5; control promoter light, run 1, well a = 2.27e5; control promoter light, run 1, well b = 2.34e5; uninduced reporter light, run 1, well a = 14220; inactive.
CG13376 [DRSC17901] showed induced reporter light, run 1, well a = 1.16e5; induced reporter light, run 1, well b = 1.51e5; control promoter light, run 1, well a = 2.53e5; control promoter light, run 1, well b = 2.52e5; uninduced reporter light, run 1, well a = 9875; inactive.
For CG7458 [DRSC11829] the deposit lists induced reporter light, run 1, well a = 1.75e5; induced reporter light, run 1, well b = 1.47e5; control promoter light, run 1, well a = 93780; control promoter light, run 1, well b = 1.01e5; uninduced reporter light, run 1, well a = 7740; inactive.
For Vha14-2 (Vacuolar H[+] ATPase 14kD subunit 2) [DRSC12145] the deposit lists induced reporter light, run 1, well a = 88965; induced reporter light, run 1, well b = 81850; control promoter light, run 1, well a = 69665; control promoter light, run 1, well b = 61445; uninduced reporter light, run 1, well a = 6515; inactive.

No new results follow: an excerpt of the list.
CG13376 [DRSC17901] → induced reporter light, run 1, well a: 1.16e5; induced reporter light, run 1, well b: 1.51e5; control promoter light, run 1, well a: 2.53e5; control promoter light, run 1, well b: 2.52e5; uninduced reporter light, run 1, well a: 9875; Call: inactive
CG7458 [DRSC11829] → induced reporter light, run 1, well a: 1.75e5; induced reporter light, run 1, well b: 1.47e5; control promoter light, run 1, well a: 93780; control promoter light, run 1, well b: 1.01e5; uninduced reporter light, run 1, well a: 7740; Call: inactive
